# Data published in patent publication US20020103132A1, “Reduction of impairment of respiratory tract mucosal immunity” (University of Teneessee Research Corporation, priority 1996, published 2002).
# At least one compound was matched to its structure with a doubt left.
# What was measured:
# [1] = system: Pseudomonas (Ps.) Aeruginosa; experiment: Mortality in lethal Pseudomonas aeruginosa pneumonia, immunized mice on IV-TPN with or without BBS (Example 6); assay type: in vivo; conditions: for Mortality (number of expired animals/total number of animals): PS mice, 5 days diet, 1.2×10^8 bacteria intratracheal, BBS 15 μg/k tid
# [2] = system: IgA; experiment: GI and RT IgA levels by ELISA after IV-TPN with or without bombesin (Example 4); assay type: in vivo, mice; conditions: after 5 days IV-TPN
# [3] = system: lymphocytes from Peyer's patches, intraepithelial and lamina propia; experiment: GALT cell yields after IV-TPN with or without bombesin (Example 4); assay type: in vivo, mice; conditions: after 5 days IV-TPN
# [4] = system: A/PR8-Mt. Sinai (H1N1) virus; assay type: in vivo, mice
smiles,measurement,setting,value
"CSCC[C@H](NC(=O)[C@H](CC(C)C)NC(=O)[C@H](Cc1cnc[nH]1)NC(=O)CNC(=O)[C@@H](NC(=O)[C@H](C)NC(=O)[C@H](Cc1c[nH]c2ccccc12)NC(=O)[C@H](CCC(N)=O)NC(=O)[C@H](CC(N)=O)NC(=O)CNC(=O)[C@H](CC(C)C)NC(=O)[C@H](CCCN=C(N)N)NC(=O)[C@H](CCC(N)=O)NC(=O)[C@@H]1CCC(=O)N1)C(C)C)C(N)=O [Bombesin, bombesin]",Mortality (number of expired animals/total number of animals),[1]; 24 Hours,2/14
same,Mortality (number of expired animals/total number of animals),[1]; 48 Hours,3/14
same,Effect on IV-TPN-increased mortality,[1]; Ps. immune IV-TPN mice,prevents this increased mortality
same,GI IgA,[2]; Day 1 of 15 ug/kg BBS IV tid,50 ± 24 µg
same,RT IgA,[2]; Day 1 of 15 ug/kg BBS IV tid,215 ± 26 ng
same,GI IgA,[2]; Day 2 of 15 ug/kg BBS IV tid,80 ± 107 µg
same,RT IgA,[2]; Day 2 of 15 ug/kg BBS IV tid,356 ± 56 ng
same,GI IgA,[2]; Day 3 of 15 ug/kg BBS IV tid,111 ± 55 µg
same,RT IgA,[2]; Day 3 of 15 ug/kg BBS IV tid,528 ± 88 ng
same,LE cell yield,[3]; Day 1 of 15 ug/kg BBS IV tid,4.2 ± 1.2 × 10^5
same,LP cell yield,[3]; Day 1 of 15 ug/kg BBS IV tid,4.2 ± 2.2 × 10^6
same,PP cell yield,[3]; Day 1 of 15 ug/kg BBS IV tid,5.6 ± 2.1 × 10^6
same,LE cell yield,[3]; Day 2 of 15 ug/kg BBS IV tid,5.0 ± 1.2 × 10^5
same,LP cell yield,[3]; Day 2 of 15 ug/kg BBS IV tid,5.1 ± 1.3 × 10^6
same,PP cell yield,[3]; Day 2 of 15 ug/kg BBS IV tid,5.8 ± 2.4 × 10^6
same,LE cell yield,[3]; Day 3 of 15 ug/kg BBS IV tid,6.1 ± 0.9 × 10^5
same,LP cell yield,[3]; Day 3 of 15 ug/kg BBS IV tid,6.2 ± 1.4 × 10^6
same,PP cell yield,[3]; Day 3 of 15 ug/kg BBS IV tid,7.6 ± 2.3\ × 10^6
same,Viral Shedding Positive %,"[4]; mouse, in vivo",8.3%
same,Effect on TPN-associated impairment of URT immunity,[4]; viral shedding,reversed the TPN-associated impairment of URT immunity
